Library screen at single concentrations

Source: ChEMBL document CHEMBL3988442, “University of Dundee, Small-Polar-MMV Screening Library” (2021).

Mtb cholesterol medium: 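Growth of Mycobacterium tuberculosis over 4 days (cholesterol / DPPC medium with tyloxapol); the read-out is not stated. Compounds at 50 µM. Higher reads as more growth inhibition (inferred: compounds with an IC50 in retests scored well above the rest). Of about 69,000 compounds tested this way, about 370 (0.54%) reached 50% or more in at least one test.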
Mtb glucose medium: 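Phenotypic screen: M. tuberculosis growth, glucose 7H9 medium, 3 days; the read-out is not stated. Concentration: 50 µM. Higher reads as more growth inhibition (inferred: compounds with an IC50 in retests scored well above the rest). Of about 69,000 compounds tested this way, about 760 (1.1%) reached 50% or more in at least one test.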

Values are the deposited “Percent Effect”, in %. How 0% and 100% were set is not recorded. Most values in the screen are low, and negative values occur. This is an unselected part of the compounds tested. Two or more numbers in one place are separate tests of the same structure; such repeats can differ widely.

compound	Mtb cholesterol medium	Mtb glucose medium
COc1ccc(N(Cc2ccco2)C(=O)C2CCCO2)cc1F (stereo not given)	-3.727	5.016
CCOCC1c2c(cnn2C)CCN1C(=O)c1ccncn1.O=C(O)C(F)(F)F (stereo not given)	2.074	0.4339 & -20.4
O=C(O)C(F)(F)F.O=S(=O)(c1cccs1)N1Cc2nc(CN3CCCC3)oc2C1	1.729	-8.002
O=C(CCn1cncn1)Nc1ccc(F)cc1OCC1CC1	-4.965 & 2.663	-13.21
[H][C@]12CC[C@]([H])(CN(C(=O)CCc3cnn(C)c3)C1)N(Cc1ccccn1)C2	-10.6	15.81
O=C(O)C(F)(F)F.[H][C@@]12CCN(CC3CCOCC3)[C@@]1([H])CCN2C(=O)c1ccc(C#N)cc1	-11.15	-25.12
COc1c(C2CCCN2C(=O)c2scnc2C)c(C)nn1C (stereo not given)	-0.4528	-13.21
COc1cccc(C(=O)C2CCCN(c3cc(C#N)ccn3)C2)c1 (stereo not given)	8.788	-12.45
Cc1ncsc1C(=O)N(C)Cc1ccc(Br)o1	-15.41	-30.02
Cc1nc2c(N3CCN(Cc4ccccc4)CC3)nc(N)nc2n1C	-17.83	-11 & -51.88
Cc1ccc(NC2CCN(C(=O)c3ccncc3)CC2)nn1	-18.26	-14.53
O=S1(=O)NC2(CCCN(CCc3ccccc3)C2)COc2ccccc21 (stereo not given)	-5.343	3.642
O=C(O)C(F)(F)F.[H][C@@]12OCCN(C(=O)c3ccoc3C)[C@@]1([H])CC[C@H]2OCc1cccnc1	5.707	-6.477 & 7.142
Cc1cc(F)ccc1S(=O)(=O)NCc1[nH]ncc1Br	22.56	30.15
O=C(NCCOc1ccccc1)Nc1cc(C(F)(F)F)c[nH]c1=O	-2.614	12.86
O=C(NCCO)c1cc(-c2ccc3c(c2)CCO3)n[nH]1	-24.44	29.09
O=C(O)C(F)(F)F.O=C(O)C(F)(F)F.[H][C@@]12COC[C@]1([H])[C@@H](OCCN(C)C)CN2Cc1ccc2c(c1)OCO2	4.812	-11.45 & -3.119
O=C(c1ccoc1)N(Cc1ccncc1)C1CC1	-12.29	-21.27
CC(C)N1CCc2c(c(COc3cccnc3)nn2CC2CC2)C1.O=C(O)C(F)(F)F.O=C(O)C(F)(F)F.O=C(O)C(F)(F)F	4.691	-8.262 & 0.2383
CC(C)(C)c1cn2nc(N3CCCC(Cn4cncn4)C3)sc2n1 (stereo not given)	3.438	-8.251
COc1c(C2CCCN2CC(=O)Nc2nc(C)cs2)c(C)nn1C (stereo not given)	-1.005	11.91
Cc1c(CN2CCCC(n3c(=O)oc4ccccc43)C2)cnn1C (stereo not given)	-12.98 & -13.85	-42.29
COc1ccccc1CN(Cc1nc(Cc2ccccc2)no1)C1CC1	12.85	2.189
CN(CCc1cccs1)C(=O)Nc1cnn(CC2CCCO2)c1 (stereo not given)	20.02	3.3 & 26.85
N#CC1COCCN1S(=O)(=O)c1ccc2ccccc2c1 (stereo not given)	-16.6	-1.383 & -16.73
Cc1c(C(=O)N2CCC(O)(CN(C)C)C2)c2ccccc2n1C (stereo not given)	5.169	29.57
Cc1cncc(C2CCN(Cc3ccncc3)CC2)n1	-5.517 & 1.037	-33.93
CCc1nc(CCNC(=O)NC2CC(=O)N(C(C)(C)C)C2)cs1 (stereo not given)	1.386 & -24.76	-28.02
CC1CN=C(N2CCN(C(=O)Nc3nc(-c4ccccc4)ns3)CC2)S1 (stereo not given)	4.456	39.13
CC(C)c1nccn1Cc1cc(C(=O)NCC(C)n2ccnc2)n[nH]1 (stereo not given)	-6.663	-20.75
CN1CCc2ncc(CNc3cc(N(C)C)ncn3)n2CC1.O=C(O)C(F)(F)F	6.284	9.638 & 3.424
Cc1cc(NC(=O)NCc2ccncc2)ccc1OC(C)C	4.595 & -0.1945	3.261
CCc1nc(CN2CCCC2C(=O)NC2CC2)cs1 (stereo not given)	-11.24	23.05
CC(C)n1cnnc1CN(C)C(=O)C1CCCN(CC(N)=O)C1 (stereo not given)	-12.79	0.7687
CNC(=O)NCC1CCC2(CCN(C(=O)c3ccccn3)CC2)CO1.O=C(O)C(F)(F)F (stereo not given)	-3.05	17.7
O=C(NCc1cnc2n1CCN(Cc1cccs1)C2)c1ccno1.O=C(O)C(F)(F)F	-25.23	10.84
Cc1ccc(S(N)(=O)=O)cc1C(=O)NC1CCCN(C)C1 (stereo not given)	-2.542	5.466
CC1CCN(S(=O)(=O)N2CCCN(CC3CCCO3)CC2)CC1 (stereo not given)	16.4	21.89 & -3.731
CNS(=O)(=O)c1cc(C(=O)NC2COc3ccccc32)cc(C)c1C (stereo not given)	-3.18	-9.93
N#Cc1ccc(F)c(CN2CCCC2Cn2cccn2)c1 (stereo not given)	-1.608	19.18
Cc1cc(CNC(=O)N2CCN(c3ccc(Cl)cn3)CC2)c(C)o1	-21.06	-13.64
CSc1ccc(CN(C(=O)c2cc(=O)[nH]c(=O)[nH]2)C2CC2)cc1	-27.47	-25.3
COc1ccc(S(=O)(=O)Nc2cccnc2-n2cncn2)cc1C	15.81	18.91 & -5.99
COc1cccc2c(=O)n(C3CCCNC3)cnc12 (stereo not given)	1.494	20.83
COc1ccc2c(c1)C1(CCN(Cc3ccccn3)CC1)N(C)CC2.O=C(O)C(F)(F)F.O=C(O)C(F)(F)F	9.946	6.945 & -3.072
Cc1cc(C)cc(C(C)NCc2nnc(C)s2)c1 (stereo not given)	7.283	-3.799 & 8.274
[H][C@@]12CN(C(=O)c3ccsc3)C[C@]1([H])C(=O)N(Cc1ccc(OC)cc1)C2	12.45	20.05 & 32.89
O=C(O)C(F)(F)F.[H][C@@]12CCCO[C@]1([H])[C@H](NC(=O)c1nccn1C)CN2CC1CCOCC1	-7.732	-17.47
CCn1nc2c(cc1=O)CN(Cc1nc(-c3cccnc3)no1)CC2	7.401	-31.1
CNC(=O)C1CN(C(=O)c2cccs2)CCN(S(C)(=O)=O)C1 (stereo not given)	1.229 & 115.2	-19.81
CCCNC(=O)c1[nH]nc(C2CC2)c1Br	-22.99	-20.42
O=C1CC[C@@H](C(=O)N2CCc3[nH]nc(COc4cccc(Cl)c4)c3C2)N1	0.04637	18.07
CC1=Nc2c(c(=O)[nH]n2C2CCCCC2)C(c2cccnc2)S1 (stereo not given)	3.394	24.97
Cc1nc(C)n(CC2CCCN2CCOc2cccc(F)c2)n1 (stereo not given)	11.39	18.77
Cc1cc(NC2CCN(CC3CCCO3)CC2)n2nc(C)c(C)c2n1 (stereo not given)	-16.06	-5.127 & 3.482
CN(CC(F)(F)F)C(=O)C1CSCN1C(=O)OC(C)(C)C (stereo not given)	-27.47	-24.07 & -2.773
CC(C(=O)NC1CCN(C)CC1)n1nc(C(F)(F)F)c(Cl)c1C1CC1 (stereo not given)	3.319	17.29
[H][C@@]12CCN(Cc3ccco3)C[C@@]1([H])O[C@H](c1ccnc(C)n1)C2	9.908	-6.453
Cc1nn(C2CCS(=O)(=O)C2)c(C)c1CC(=O)NCc1ccccc1Cl (stereo not given)	-16.44	-17.8 & 1.869
COc1cccc2ncn(C(C)Cn3cccn3)c(=O)c12 (stereo not given)	12.63	14.71
CN(CC(=O)NCc1ccccn1)CC1CCCN1c1cccnn1 (stereo not given)	10.12 & -13.47	-3.753
CN(C)CCn1c2c(ccc1=O)CC(NCc1cccnc1)CC2.O=C(O)C(F)(F)F.O=C(O)C(F)(F)F.O=C(O)C(F)(F)F (stereo not given)	13.59	-9.471 & -7.35
Cc1nc(CCNC(=O)NC(C)Cn2cccn2)cs1 (stereo not given)	-3.854	-2.909 & -15.27
Cc1ccsc1C(=O)N1Cc2ccccc2C2(CCN(C)CC2)C1	-6.669	8.381
COc1ccc(CNC(=O)C(NC(=O)Cc2ccccc2)C(C)C)cn1 (stereo not given)	-14.48	-16.36
COc1cccc(-c2n[nH]cc2C(=O)NC(C)CC(=O)O)c1 (stereo not given)	6.433	4.963
CCC(Nc1cccc(Oc2ccccn2)c1)C(N)=O (stereo not given)	-8.489 & 8.092	14.07
Cn1cc(C2COC3(CCN(C(=O)c4ccc(F)cc4)CC3)C2)cn1 (stereo not given)	-8.266	9.637
c1ccc2c(c1)CC(N1CCCC(NCc3ccc4nonc4c3)C1)C2 (stereo not given)	8.199	20.73
Cc1noc(CCCC(=O)Nc2cc(C(F)(F)F)c[nH]c2=O)n1	-8.669	-12.89
CCCS(=O)(=O)N1CCN(C(=O)CO)CC1	-31.34	24.27
[H][C@@]12CCN(c3ncccn3)C[C@]1([H])[C@H](C(=O)N1CCN(C)CC1)CCO2	35.93	20.45
CCN(C(=O)c1nc2c(s1)CCCN2S(C)(=O)=O)C(C)C	-21.92	-14.45
CCn1nc(-c2ccccc2F)ccc1=O	2.509	20.9
CCn1c(N)nc2cc(C(=O)N3CCN(c4ccncc4)CC3)cnc21	-18.43	-12.87
Cc1ncsc1C(=O)NC1CCN(Cc2cccnc2)CC1	-9.624	4.011
CN(C)c1ncnc2c1CCN(C(=O)c1sccc1S(N)(=O)=O)C2	3.841	-15.47
COC(=O)c1ccc(C2SCC(=O)Nc3c2cnn3C(C)(C)C)cc1 (stereo not given)	7.026	23.59
Cl.Cn1nc(C2CCN(C(=O)Cc3cccc(F)c3)CC2)c2cccnc21	-2.407	9.474
CN(C)C(=O)CS(=O)(=O)Cc1cc(Cl)c2c(c1)OCCCO2	-16.15	-22.76
CN(C)c1ncc(NC(=O)c2cccc(Nc3cnn(C)c3)c2)cn1	0.4124 & -6.678	-11.21

Once more, the final 7:

{"compound": "CCn1c(N)nc2cc(C(=O)N3CCN(c4ccncc4)CC3)cnc21", "Mtb cholesterol medium": -18.43, "Mtb glucose medium": -12.87}
{"compound": "Cc1ncsc1C(=O)NC1CCN(Cc2cccnc2)CC1", "Mtb cholesterol medium": -9.624, "Mtb glucose medium": 4.011}
{"compound": "CN(C)c1ncnc2c1CCN(C(=O)c1sccc1S(N)(=O)=O)C2", "Mtb cholesterol medium": 3.841, "Mtb glucose medium": -15.47}
{"compound": "COC(=O)c1ccc(C2SCC(=O)Nc3c2cnn3C(C)(C)C)cc1", "stereo": "stereo not given", "Mtb cholesterol medium": 7.026, "Mtb glucose medium": 23.59}
{"compound": "Cl.Cn1nc(C2CCN(C(=O)Cc3cccc(F)c3)CC2)c2cccnc21", "Mtb cholesterol medium": -2.407, "Mtb glucose medium": 9.474}
{"compound": "CN(C)C(=O)CS(=O)(=O)Cc1cc(Cl)c2c(c1)OCCCO2", "Mtb cholesterol medium": -16.15, "Mtb glucose medium": -22.76}
{"compound": "CN(C)c1ncc(NC(=O)c2cccc(Nc3cnn(C)c3)c2)cn1", "Mtb cholesterol medium": "0.4124 & -6.678", "Mtb glucose medium": -11.21}